The text below walks through data of paper PMC6969169.

For this assay, the target named is T1, Ncbp1 (mouse (endogenous in A2lox ESCs)) (UniProt Q3UYV9).
T1 sequence: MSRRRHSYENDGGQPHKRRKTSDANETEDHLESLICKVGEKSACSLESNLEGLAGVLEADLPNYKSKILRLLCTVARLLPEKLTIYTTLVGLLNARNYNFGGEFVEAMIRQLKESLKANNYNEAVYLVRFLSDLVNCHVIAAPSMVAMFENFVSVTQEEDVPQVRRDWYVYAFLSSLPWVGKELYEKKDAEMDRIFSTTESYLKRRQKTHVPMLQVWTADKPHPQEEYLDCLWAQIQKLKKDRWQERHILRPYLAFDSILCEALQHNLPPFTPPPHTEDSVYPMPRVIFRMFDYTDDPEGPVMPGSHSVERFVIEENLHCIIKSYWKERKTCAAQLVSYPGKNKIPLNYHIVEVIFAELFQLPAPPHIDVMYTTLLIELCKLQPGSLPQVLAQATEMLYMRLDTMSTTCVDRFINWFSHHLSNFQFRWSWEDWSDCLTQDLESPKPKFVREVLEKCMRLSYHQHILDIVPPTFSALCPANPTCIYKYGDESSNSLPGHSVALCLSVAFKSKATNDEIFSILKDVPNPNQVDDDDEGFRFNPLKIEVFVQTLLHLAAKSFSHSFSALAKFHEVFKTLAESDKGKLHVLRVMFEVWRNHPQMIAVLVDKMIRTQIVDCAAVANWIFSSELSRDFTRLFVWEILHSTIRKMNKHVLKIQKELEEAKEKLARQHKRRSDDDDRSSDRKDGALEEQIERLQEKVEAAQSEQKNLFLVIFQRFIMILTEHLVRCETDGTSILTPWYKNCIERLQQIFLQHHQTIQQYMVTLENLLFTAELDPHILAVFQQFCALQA
The assay can be described thus: co-IP; clarified lysate of A2lox mouse ESCs (10 mM Tris-HCl pH 7.5, 150 mM NaCl, 0.5% NP-40) with Dynabeads protein G preloaded with protein-specific antibodies or non-immune rabbit IgG, 4 °C overnight; in some experiments lysates with 25 units/ml benzonase; immunoblotting. A general note: A western blot detects proteins with antibodies after separation by electrophoresis.

These are yes or no findings as the source states them, for the method shown. Binding seen in cells or lysates may run through a third protein. Some entries that bind do so weakly or less than the wild type.

B1: Srrt (protein, UniProt Q99MR6 1-875)
chain: MGDSDDEYDRRRRDKFRRERSDYDRSRERDERRRGDDWNDREWDRGRERRSRGEYRDYDRNRRERFSPPRHELSPPQKRMRRDWDEHSSDPYHSGYDMPYAGGGGGPTYGPPQPWGHPDVHIMQHHVLPIQARLGSIAEIDLGVPPPIMKSFKEFLLSLDDSVDETEAVKRYNDYKLDFRRQQMQDFFLAHKDEEWFRSKYHPDEVGKRRQEARGALQNRLKVFLSLMESGWFDNLLLDIDKADAIVKMLDAAVIKMEGGTENDLRILEQEEEEEQAGKTGEASKKEEARAGPALGEGERKANDKDEKKEDGKQAENDSSNDDKTKKSEGDGDKEEKKEEAEKEAKKSKKRNRKQSGDDSFDEGSVSESESESEGGQAEEEKEEAEEALKEKEKPKEEEKEKPKDAAGLECKPRPLHKTCSLFMRNIAPNISRAEIISLCKRYPGFMRVALSEPQPERRFFRRGWVTFDRSVNIKEICWNLQNIRLRECELSPGVNRDLTRRVRNINGITQHKQIVRNDIKLAAKLIHTLDDRTQLWASEPGTPPVPTSLPSQNPILKNITDYLIEEVSAEEEELLGSSGGPPPEEPPKEGNPAEINVERDEKLIKVLDKLLLYLRIVHSLDYYNTCEYPNEDEMPNRCGIIHVRGPMPPNRISHGEVLEWQKTFEEKLTPLLSVRESLSEEEAQKMGRKDPEQEVEKFVTSNTQELGKDKWLCPLSGKKFKGPEFVRKHIFNKHAEKIEEVKKEVAFFNNFLTDAKRPALPEIKPAQPPGPAQILPPGLTPGLPYPHQTPQGLMPYGQPRPPILGYGAGAVRPAVPTGGPPYPHAPYGAGRGNYDAFRGQGGYPGKPRNRMVRGDPRAIVEYRDLDAPDDVDFF
Consider B1, for which the binding result is reported as “binds”.
